PubChem BioAssay AID1259254 – NCATS – 2017
The deposit covers about 59,000 reagents; this is an unselected part. About 1,550 of them (2.6%) count as active. 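G2 share is only a proxy for re-replication; each gene was hit by three separate siRNAs, and active genes were retested.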 The numbers tell different reagents against one gene apart. Further read-outs or replicates are left out here. The record does not give: the amount of reagent.

Screen: 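Finding genes that stop cells copying their DNA twice in one cycle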 (primary screen)
Cell system: human HCT116 colorectal cancer cells
Reagent: single siRNA against human genes
Duration: 3 days
Measured: 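Nuclei stained with Hoechst and imaged; cell-cycle phase assigned by DNA content; G2 share scaled per plate, non-targeting siRNA 0%, GMNN siRNA 100%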
Reading the numbers: G2 robust z-score: higher = more G2 cells, more excess DNA replication
Call rule: 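An siRNA counts as active if its G2 robust z-score lies at least 5 MADs above the screen median; here such calls match roughly 38% of GMNN control or more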

PIAS3 #1 → G2 robust z-score: -0.511; Outcome: inactive
PIAS3 #2 → G2 robust z-score: -0.504; Outcome: inactive
PIAS3 #3 → G2 robust z-score: -0.418; Outcome: inactive
ZNF12 #1 → G2 robust z-score: -0.55; Outcome: inactive
ZNF12 #2 → G2 robust z-score: -1.09; Outcome: inactive
ZNF12 #3 → G2 robust z-score: 1.99; Outcome: inactive
SGCB #1 → G2 robust z-score: -0.333; Outcome: inactive
SGCB #2 → G2 robust z-score: -0.784; Outcome: inactive
SGCB #3 → G2 robust z-score: 0.425; Outcome: inactive
DUSP9 #1 → G2 robust z-score: -0.34; Outcome: inactive
DUSP9 #2 → G2 robust z-score: -0.85; Outcome: inactive
DUSP9 #3 → G2 robust z-score: 0.116; Outcome: inactive
CHP1 #1 → G2 robust z-score: -0.201; Outcome: inactive
CHP1 #2 → G2 robust z-score: -0.344; Outcome: inactive
CHP1 #3 → G2 robust z-score: -0.745; Outcome: inactive
LOC732226 (retired record) #1 → G2 robust z-score: -1.42; Outcome: inactive
LOC732226 (retired record) #2 → G2 robust z-score: 0.702; Outcome: inactive
LOC732226 (retired record) #3 → G2 robust z-score: -0.63; Outcome: inactive
TSPAN1 #1 → G2 robust z-score: -1.22; Outcome: inactive
TSPAN1 #2 → G2 robust z-score: -0.0608; Outcome: inactive
TSPAN1 #3 → G2 robust z-score: -0.49; Outcome: inactive
H2BC8 #1 → G2 robust z-score: 0.126; Outcome: inactive
H2BC8 #2 → G2 robust z-score: 2.59; Outcome: inactive
H2BC8 #3 → G2 robust z-score: 0.231; Outcome: inactive
CD200R1 #1 → G2 robust z-score: 2.1; Outcome: inactive
CD200R1 #2 → G2 robust z-score: 0.179; Outcome: inactive
CD200R1 #3 → G2 robust z-score: 0.435; Outcome: inactive
GPR15LG #1 → G2 robust z-score: 5.5; Outcome: active
GPR15LG #2 → G2 robust z-score: -0.219; Outcome: inactive
GPR15LG #3 → G2 robust z-score: 0.22; Outcome: inactive

A portion of the results above:
ZNF12 #3 → G2 robust z-score: 1.99; Outcome: inactive
SGCB #1 → G2 robust z-score: -0.333; Outcome: inactive
